The target in assay [1] is talin 1, endogenous, mouse heart sections (mouse (endogenous in heart sections)) (UniProt P26039). The assay can be described thus: proximity ligation; in situ Duolink PLA on heart sections of MLP knockout mice and WT controls; antibody pairs DLC1 (mouse)/talin 1 (rabbit) and RIAM (rabbit)/talin 1 (mouse).
For assay [2] the target is unchanged. As to the kind of experiment: condition: only in WT hearts (interaction seen in MLP knockout hearts); proximity ligation; in situ Duolink PLA on heart sections of WT mice only; antibody pair RIAM (rabbit)/talin 1 (mouse).
Assay [3] concerns the target T1, DLC1 TBS (465-489C) synthetic peptide, fluorescein-labelled.
T1 sequence (peptide, fluorescein coupled via the terminal (C-terminal, non-native) cysteine): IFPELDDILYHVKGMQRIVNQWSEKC
As to the kind of experiment: fluorescence polarisation; negative control without R7R8: uncomplexed DLC1 TBS-F titrated with unlabeled RIAM TBS1 (up to 160 μM); both purified. For orientation: Polarisation of emitted light reports the rotation of a fluorescent probe.

Amino acid sequences for entries named in this document (tags omitted).
UniProt P26039: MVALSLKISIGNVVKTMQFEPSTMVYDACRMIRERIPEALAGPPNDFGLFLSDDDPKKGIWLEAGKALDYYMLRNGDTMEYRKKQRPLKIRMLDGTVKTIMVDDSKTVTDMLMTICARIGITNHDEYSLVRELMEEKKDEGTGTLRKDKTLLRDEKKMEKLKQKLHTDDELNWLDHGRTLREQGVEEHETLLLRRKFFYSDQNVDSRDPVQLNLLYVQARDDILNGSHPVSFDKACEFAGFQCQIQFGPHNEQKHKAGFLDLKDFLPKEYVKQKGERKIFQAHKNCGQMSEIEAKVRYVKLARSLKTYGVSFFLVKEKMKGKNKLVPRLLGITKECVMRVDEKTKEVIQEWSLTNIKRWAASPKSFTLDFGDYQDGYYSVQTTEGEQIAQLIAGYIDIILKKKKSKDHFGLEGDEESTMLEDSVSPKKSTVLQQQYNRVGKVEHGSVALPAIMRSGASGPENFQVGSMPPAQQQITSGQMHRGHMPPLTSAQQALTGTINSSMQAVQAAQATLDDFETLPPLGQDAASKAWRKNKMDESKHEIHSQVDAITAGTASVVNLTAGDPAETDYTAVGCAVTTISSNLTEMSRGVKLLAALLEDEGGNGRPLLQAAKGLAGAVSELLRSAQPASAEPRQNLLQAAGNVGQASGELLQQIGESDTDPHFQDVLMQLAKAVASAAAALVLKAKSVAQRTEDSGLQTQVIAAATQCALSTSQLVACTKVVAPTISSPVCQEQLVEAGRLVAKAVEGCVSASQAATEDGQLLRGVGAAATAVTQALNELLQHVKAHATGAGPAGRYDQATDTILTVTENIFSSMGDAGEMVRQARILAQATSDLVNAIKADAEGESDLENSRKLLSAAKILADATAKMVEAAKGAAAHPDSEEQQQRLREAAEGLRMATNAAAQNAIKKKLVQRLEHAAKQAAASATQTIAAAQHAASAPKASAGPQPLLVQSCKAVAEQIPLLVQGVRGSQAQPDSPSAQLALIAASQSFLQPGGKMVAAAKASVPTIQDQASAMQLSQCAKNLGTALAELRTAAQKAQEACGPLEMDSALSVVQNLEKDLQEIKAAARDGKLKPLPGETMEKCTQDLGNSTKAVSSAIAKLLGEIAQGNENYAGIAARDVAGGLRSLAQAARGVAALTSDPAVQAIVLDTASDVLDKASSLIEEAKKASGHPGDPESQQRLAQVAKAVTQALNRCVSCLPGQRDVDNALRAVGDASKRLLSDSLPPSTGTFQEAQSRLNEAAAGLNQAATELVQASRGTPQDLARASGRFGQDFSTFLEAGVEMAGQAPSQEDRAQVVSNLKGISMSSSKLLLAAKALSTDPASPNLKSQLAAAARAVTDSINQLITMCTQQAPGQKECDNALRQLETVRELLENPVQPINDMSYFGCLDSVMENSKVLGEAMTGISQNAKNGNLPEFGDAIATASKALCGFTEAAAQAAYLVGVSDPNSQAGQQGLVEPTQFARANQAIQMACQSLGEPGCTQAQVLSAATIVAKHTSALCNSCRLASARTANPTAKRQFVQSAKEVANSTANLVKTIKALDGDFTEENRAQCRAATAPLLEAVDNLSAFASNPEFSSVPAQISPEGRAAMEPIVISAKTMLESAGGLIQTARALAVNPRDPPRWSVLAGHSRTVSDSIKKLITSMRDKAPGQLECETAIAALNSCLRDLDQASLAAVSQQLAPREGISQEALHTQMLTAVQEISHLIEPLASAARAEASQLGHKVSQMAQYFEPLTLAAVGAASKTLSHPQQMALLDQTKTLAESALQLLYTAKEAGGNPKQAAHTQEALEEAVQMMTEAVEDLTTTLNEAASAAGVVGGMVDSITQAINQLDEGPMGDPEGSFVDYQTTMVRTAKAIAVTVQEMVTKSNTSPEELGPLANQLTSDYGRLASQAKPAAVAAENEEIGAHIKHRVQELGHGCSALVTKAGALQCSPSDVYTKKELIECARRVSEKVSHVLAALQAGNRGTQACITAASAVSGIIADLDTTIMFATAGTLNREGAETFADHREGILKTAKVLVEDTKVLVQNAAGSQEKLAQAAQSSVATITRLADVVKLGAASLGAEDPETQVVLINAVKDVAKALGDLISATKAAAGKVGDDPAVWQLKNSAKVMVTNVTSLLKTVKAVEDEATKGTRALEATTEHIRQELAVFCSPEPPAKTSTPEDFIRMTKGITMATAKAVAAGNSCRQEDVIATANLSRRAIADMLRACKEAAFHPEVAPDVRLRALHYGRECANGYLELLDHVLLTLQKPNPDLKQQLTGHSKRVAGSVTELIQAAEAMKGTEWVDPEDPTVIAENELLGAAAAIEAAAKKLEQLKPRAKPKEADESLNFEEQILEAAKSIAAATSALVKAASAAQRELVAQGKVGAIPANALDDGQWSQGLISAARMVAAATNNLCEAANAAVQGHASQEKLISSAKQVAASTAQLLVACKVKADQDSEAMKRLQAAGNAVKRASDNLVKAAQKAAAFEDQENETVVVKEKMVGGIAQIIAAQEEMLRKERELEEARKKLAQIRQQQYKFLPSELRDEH

No constants are given. Whether binding was seen depends on the method and setting. For some of these results: Binding seen in cells or lysates may run through a third protein. Some binding calls cover weakened binding; strength is not graded here.

B1: DLC1, endogenous, mouse heart sections (protein, UniProt Q9R0Z9 1-1092)
chain: MCRDEPDTMILTQIEAKEACDWLRVTGFPQYAQLYEDLLFPVDIALVKREHDFLDRDAIEALCRRLNTLNKCAVMKLEISPHRKRSEDSDEDEPCAISGKWTFQRDSKRWSRLEEFDVFFPKQDPIPGSPDNSRLQSATSHESMLTDLSEHQEVASVRSLSSTSSSVPTHAAHSGDATTPRTNSVISVCSSGHFVGNDDSFSSLPSPKELSSFSFSMKGHHEKNTKSKTRSLLKRMESLKLKGSHHSKHKAPSKLGLIISAPILQEGMDEAKLKQLNCVEISALNGNHINVPMVRKRSVSNSTQTSSSSSQSETSSAVSTPSPVTRTRSLSTCNKRVGMYLEGFDPFSQSTLNNVTEQNYKNRESYPEDTVFYIPEDHKPGTFPKALSHGSFCPSGNSSVNWRTGSFHGPGHLSLRRENSHDSPKELKRRNSSSSLSSRLSIYDNVPGSILYSSSGELADLENEDIFPELDDILYHVKGMQRIVNQWSEKFSDEGDSDSALDSVSPCPSSPKQIHLDVDHDRRTPSDLDSTGNSLNEPEEPTDIPERRDSGVGASLTRCNRHRLRWHSFQSSHRPSLNSVSLQINCQSVAQMNLLQKYSLLKLTALLEKYTPSNKHGFSWAVPKFMKRIKVPDYKDRSVFGVPLTVNVQRSGQPLPQSIQQAMRYLRNHCLDQVGLFRKSGVKSRIQALRQMNESAEDNVNYEGQSAYDVADMLKQYFRDLPEPLMTNKLSETFLQIYQYVPKDQRLQAIKAAIMLLPDENREVLQTLLYFLSDVTAAVKENQMTPTNLAVCLAPSLFHLNTLKRENSSPRVMQRKQSLGKPDQKDLNENLAATQGLAHMIAECKKLFQVPEEMSRCRNSYTEQELKPLTLEALGHLNSDQPADYRHFLQDCVDGLFKEVKEKFKGWVSYPTSEQADLSYKKVSEGPPLRLWRSTIEVPAAPEEILKRLLKEQHLWDVDLLDSKVIEILDSQTEIYQYVQNSMAPHPARDYVVLRTWRTNLPRGACALLLTSVDHDRAPVAGVRVNVLLSRYLIEPCGSGKSKLTYMCRADLRGHMPEWYSKSFGHLCAAEVVKIRDSFSNQNTESKDTRSR
On to B1, for which, in assay [1], the binding entry is “binds”.

B2: RIAM, endogenous, mouse heart sections (protein, UniProt Q8R5A3 1-670)
chain: MGESNEDIDQMFSTLLGEMDLLTQSLGVDTLPPPDPNPPREEFNYTVGFKDLNESLNALEDQDLDALMADLVADISEAEQRTIQAQKESSQNQDRFALLRASDGQGTASGGYGASAAAIDVSHHEEALPPPPVEPMLDLLPPPPPPPPPELLSKEEEEAKAKADKIKLALEKLKEAKVKKLVVKVHMDDSSTKSLMVDERQLARDVLDNLFEKTHCDCNVDWCLYEIYPELQIERVFEDHENVVEVLSDWTRDTENKVLFLEKEERYAVFKNPQNFYLDNKGKKENKETNEKMNAKNKEYLLEESFCGTSIIVPELEGALYLKEDGKKSWKRRYFLLRASGIYYVPKGKTKTSRDLACFIQFENVNIYYGIQCKMKYKAPTDHCFVLKHPQIQKESQYIKYLCCDDARTLSQWVMGIRIAKYGKTLYDNYQRAVARAGLASRWTNLGTVGTPMPAQPSTVSSGLKTGTSQPNGQMPQAIPSAGPPLQEAQTQIETTKDEKQGLGNHSPGATRENHRPKSSLPPPPPPVRRSSDTCGSPALPSKVKGPGTCTFPHPPENFLPPPPPPPPEEDNSGLLPPPPPPPYLEEPPDFVPPPPPPAAVEDSALPPPPPPPPCLSQEITKSSPLPPKKPLVPPKRQENQGLPGAPGNSEQDFMSDLMKALQKKRGNIP
For B2, the binding result was “binds” in assay [1] and “no binding” in assay [2].

For SEDIDQMFSTLLGEMDLLTQSLGVDTC [RIAM TBS1 (4-30C) synthetic peptide, unlabeled], the binding result in assay [3] is listed as “no binding (tested: 160 μM)”.

The values are drawn from article PMC12412656.
